The data set in a line: general procedure: Fmoc solid-phase peptide synthesis; preloaded Tentagel S AC resins (Rapp Polymere). As to conditions: for conjugation yield: conjugation step.

Several values for one entry are separate records, joined by “and”; a condition that tells them apart may be missing. Equal entries are not always repeated. Strings that start with PEPTIDE1 are HELM notation: dots part the residues, brackets hold end groups and non-standard residues.

For the substance Ac-DEVGTFKERIQWVGDPRWKDGSIVIC-NH2, the crude yield (whole synthesis) came to 22%.
For the substance Ac-TFTADVKNPPDIVGKTSQVTLYVFEKC-NH2, for the setting “whole synthesis”, the crude yield came to 57% and the difficulty met result is given as “The synthesis of P0_21–45 failed repeatedly, meaning this peptide was excluded from further evaluation”.
Where the note is “whole synthesis”, H-IVVYTDREVHGAVGSRVTLHCSFWS-NH2 returned a crude yield of 52%.
On to Ac-KNPPDIVGKTSQVTLYVFEKVPTRYC(Cy5)-NH2, for which the conjugation yield is 59% isolated yield and 9% isolated yield.
Take Ac-KNPPDIVGKTSQVTLYVFEKVPTRYC-NH2: the crude yield is on record as 50% (whole synthesis, Par20) and 14% (whole synthesis, run 1).
Substance “PEPTIDE1{[ac].T.F.T.A.D.V.K.N.P.P.D.I.V.G.K.T.S.Q.V.T.L.Y.V.F.E.K.C.[am]}|CHEM1{[MalCy5S3]}$PEPTIDE1,CHEM1,28:R3-1:R1$$$V2.0” gave a conjugation yield of 29% isolated yield.
Same read-out and setting: in the case of “PEPTIDE1{[ac].G.S.I.V.I.H.N.L.D.Y.S.D.N.G.T.F.T.C.D.V.K.N.P.P.D.[am]}|CHEM1{[MalCy5S3]}$PEPTIDE1,CHEM1,19:R3-1:R1$$$V2.0” it was 35% isolated yield.
On the same count and under the same terms, then “PEPTIDE1{I.V.V.Y.T.D.R.E.V.H.G.A.V.G.S.R.V.T.L.H.C.S.F.W.S.[am]}|CHEM1{[MalCy5S3]}$PEPTIDE1,CHEM1,21:R3-1:R1$$$V2.0”, with 3% isolated yield.
Where the note is “whole synthesis”, Ac-PEGGRDAISIFHYAKGQPYIDEVGTC-NH2 gave a crude yield of 41%.
As to Ac-CSFWSSEWVSDDISFTWRYQPEGGR-NH2, the outcome (whole synthesis) is reported as “The synthesis of P0_21–45 failed repeatedly”.
With Ac-GSIVIHNLDYSDNGTFTCDVKNPPD-NH2, the crude yield was 85% (whole synthesis, Par20) and 56% (whole synthesis, run 1).
“PEPTIDE1{[ac].P.E.G.G.R.D.A.I.S.I.F.H.Y.A.K.G.Q.P.Y.I.D.E.V.G.T.C.[am]}|CHEM1{[MalCy5S3]}$PEPTIDE1,CHEM1,27:R3-1:R1$$$V2.0” had a conjugation yield of 49% isolated yield.
Same read-out and setting: then “PEPTIDE1{[ac].D.E.V.G.T.F.K.E.R.I.Q.W.V.G.D.P.R.W.K.D.G.S.I.V.I.C.[am]}|CHEM1{[MalCy5S3]}$PEPTIDE1,CHEM1,27:R3-1:R1$$$V2.0”, with 5% isolated yield.

(Values after PMC8164657 (EJNMMI Research, 2021).)
